Laboratory results published in the supplement of paper PMC3334620.
Over roughly 33,000 sequences, “E-score (-0.5 to 0.5)” has its median near -0.0059; the highest 2% begin near 0.26. The list shows a part of the results.

Biological target: T1, Cin5 (UniProt P40917)
T1 sequence: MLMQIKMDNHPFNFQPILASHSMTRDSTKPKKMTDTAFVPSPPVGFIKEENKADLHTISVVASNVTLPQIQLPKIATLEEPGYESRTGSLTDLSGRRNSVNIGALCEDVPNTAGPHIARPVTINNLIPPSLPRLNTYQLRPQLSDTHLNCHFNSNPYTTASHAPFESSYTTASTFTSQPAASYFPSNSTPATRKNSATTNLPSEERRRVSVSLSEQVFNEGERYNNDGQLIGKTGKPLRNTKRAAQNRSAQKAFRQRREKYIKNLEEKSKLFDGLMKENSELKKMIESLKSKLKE
Assay: PBM E-score (8-mer binding enrichment) (E-score (-0.5 to 0.5)); higher = stronger / more preferred TF binding
Conditions: protein concentration: 100 nM; construct: GST-full length
Procedure, shortened: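 Yeast transcription factors, full-length or as DNA-binding domains, were expressed with a GST tag using PURExpress in vitro transcription/translation. At about 100-200 nM they were applied to universal all-10-mer Agilent arrays, double-stranded by primer extension on fresh or once-stripped slides. Fluorescent anti-GST detected bound protein, and masliner normalised the scans. E-scores for ungapped eight-base words, pooled with reverse complements, came from the Universal PBM Analysis Suite.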

Sequence	PBM E-score
AACTTGCT	0.0273
ACCTGGAG	-0.0507
TACTGCAA	-0.0141
TACAGTGA	0.0759
AGCAAGGC	-0.0671
CCAATCGC	0.106
TCCAGCCA	-0.285
ACCCTTGG	-0.261
TGCAGGCA	-0.164
AAATGCAT	0.141
ATGACAGG	-0.11
AGATGCTA	-0.0608
ACACGTGG	-0.0534
CTGTCGGA	-0.0806
GGCATAAC	0.079
AACATGGG	0.21
ACAAGTCA	-0.155
CCGTCTCG	0.129
GTGCCGGA	-0.112
CTAGAGGC	-0.13
ATCACGGC	0.102
CGCTTTTA	0.122

Sequence	PBM E-score
GTTCCTGA	-0.0504
AGTGACGC	-0.0619
AATATGAT	0.297
ACGATCGA	0.117
AGTGCAGC	-0.0791
GCTTAACC	-0.0575
AACCACTA	-0.02
GGACGGGA	-0.136
GAGTAAGA	-0.00658
GACGATAC	-0.0571
TCATAGAA	0.0971
GAAAGTAC	0.121
CCACATAC	0.17
ACACTTGA	-0.0609
AGAGCCCC	-0.248
ATAGAAGA	-0.164
GACCAACA	0.209
ACATAGGT	0.0354
GCATCATA	0.0947
ATCACGCC	0.00262
CCTACGCC	-0.167
AGAGCGAG	-0.119

Sequence	PBM E-score
ACACACCA	0.244
GTAGACGA	-0.0708
GATTACGC	0.301
ACCCGGGG	-0.194
TAGTGGGA	-0.101
CCGAGCCA	-0.13
TCAGGAAA	-0.0828
ATATTGGA	0.144
AAGTGATC	-0.019
CTCGGTCA	-0.0681
GCAAATGA	-0.0014
AATTTGCT	0.103
CAAATGCA	-0.0191
TAGTATGA	0.232
CGAAAGAG	-0.0699
AGACAATA	0.279
ACCGCTAA	0.0554
CATTATCA	0.206
AGCGAAAG	0.0415
AATTTAAT	0.192
GCGAGAGC	-0.0714
AGCCTCTG	-0.283

Shown with each value named: part of the list above.
ATGACAGG
  PBM E-score: -0.11
CCGTCTCG
  PBM E-score: 0.129
GAAAGTAC
  PBM E-score: 0.121
ATAGAAGA
  PBM E-score: -0.164

Continued:

Sequence	PBM E-score
AACTAAGA	0.197
GATCTAGA	0.0166
ACATCCAT	0.0406
CAGGTGTC	-0.0508
CCCAAAGA	-0.0454
GAAAGCGA	0.172
AACTGCTA	0.0485
TACACGCA	-0.0443
TAAGCCAA	0.227
ACACAATA	0.213
GACAGTGA	-0.019
AGAATGTC	0.0183
TACGGACA	-0.042
ATCTTGTA	0.0315
ACCCAGAT	-0.111
ATAAGTCC	-0.0382
GACGTGAC	-0.0315
CGGACGTC	0.0418
GAACCACA	0.188
CGCCATAA	-0.0576
GAGAACAC	0.047
TCGAAGCA	-0.183

Sequence	PBM E-score
CCTGTTCC	-0.0916
ACGGGATG	0.0643
CGTCGCAC	-0.115
CGGTACGC	-0.103
GGGCAGTA	0.0882
GGGTCACA	-0.19
ATGGCATC	0.155
GGAGCGAA	-0.107
TATTAAGA	-0.0813
ATCTATTC	0.118
GTATTTGA	0.118
AGATTTCA	0.127
ATGACTCA	0.142
CTTCGAAA	-0.0963
AAGTGAGG	-0.0642
CGGTAACC	-0.15
AGTGGCAC	-0.127
AACAGTCA	-0.041
ACAGTCAT	-0.0745
ACCGCTCC	-0.103
ATGAAGAG	0.0835
